{"sequences": {"note": "The chains behind the UniProt entries cited, without tags or fusion partners. Residues count along the entry.", "UniProt Q1A7N1, 1-1104": "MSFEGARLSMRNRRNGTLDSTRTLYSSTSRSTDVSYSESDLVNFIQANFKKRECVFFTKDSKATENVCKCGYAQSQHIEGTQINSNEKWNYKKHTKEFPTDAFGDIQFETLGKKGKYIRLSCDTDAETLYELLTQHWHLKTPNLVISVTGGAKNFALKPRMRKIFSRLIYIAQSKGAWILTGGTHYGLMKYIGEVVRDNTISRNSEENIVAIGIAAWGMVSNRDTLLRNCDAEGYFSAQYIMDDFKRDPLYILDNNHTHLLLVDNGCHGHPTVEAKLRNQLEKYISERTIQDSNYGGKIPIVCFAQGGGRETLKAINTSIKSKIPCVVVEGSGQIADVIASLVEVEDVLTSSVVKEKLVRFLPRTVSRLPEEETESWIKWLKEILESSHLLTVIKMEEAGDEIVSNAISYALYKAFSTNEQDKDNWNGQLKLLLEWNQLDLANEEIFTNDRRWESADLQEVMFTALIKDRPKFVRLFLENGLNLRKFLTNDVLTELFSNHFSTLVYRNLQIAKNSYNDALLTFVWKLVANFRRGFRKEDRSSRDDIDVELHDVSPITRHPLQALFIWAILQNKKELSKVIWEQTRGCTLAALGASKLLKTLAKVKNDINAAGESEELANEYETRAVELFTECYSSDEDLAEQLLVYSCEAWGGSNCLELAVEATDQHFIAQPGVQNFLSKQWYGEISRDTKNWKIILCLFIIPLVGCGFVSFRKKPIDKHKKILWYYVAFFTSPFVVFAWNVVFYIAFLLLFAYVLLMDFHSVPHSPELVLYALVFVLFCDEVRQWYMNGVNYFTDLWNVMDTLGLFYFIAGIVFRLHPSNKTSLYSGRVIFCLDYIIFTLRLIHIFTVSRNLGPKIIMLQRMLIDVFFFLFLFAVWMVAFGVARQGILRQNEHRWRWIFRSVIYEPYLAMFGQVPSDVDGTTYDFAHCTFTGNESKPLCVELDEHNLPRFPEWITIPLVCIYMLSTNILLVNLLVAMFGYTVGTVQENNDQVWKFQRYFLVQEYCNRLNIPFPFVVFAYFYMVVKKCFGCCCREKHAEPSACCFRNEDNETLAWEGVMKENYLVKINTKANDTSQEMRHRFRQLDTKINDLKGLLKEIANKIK"}, "source": "patent US20080287398A1", "about": "“COLD MENTHOL RECEPTOR-1 ANTAGONISTS” (priority 2007, published 2008)", "biological_target": "canine TRPM8 (Canis lupus familiaris, UniProt Q1A7N1)", "assay": "In vitro canine TRPM8 functional assay (Ca2+-sensitive dye, FLIPR/FDSS, icilin activation)", "format": "cell-based", "conditions": "HEK293 cells expressing canine TRPM8, icilin activation; eight-point dose-response", "note": "Certain results were filed several times, with different values. The other results are left out here. An entry can have further records. The values listed for one entry differ for a reason that is not stated; they may come from other doses, times, organisms or constructs than stated.", "data": [{"smiles": "CC(C)OP(=O)(OC(C)C)C(Cc1ccc(F)cc1)c1sc2ccccc2c1Cl", "note": "(stereo not drawn)", "values": [{"measurement": "IC50", "result": "66 nM and 31 nM"}]}, {"smiles": "COc1cc(CC(c2sc3ccccc3c2Br)P(=O)(OC(C)C)OC(C)C)ccc1F", "note": "(stereo not drawn)", "values": [{"measurement": "IC50", "result": "3 nM and 17 nM"}]}, {"smiles": "CC(C)OP(=O)(OC(C)C)C(Cc1ccc(F)cc1)c1sc2ccccc2c1Br", "note": "(stereo not drawn) [Cpd 197]", "values": [{"measurement": "IC50", "result": "45 nM and 20 nM"}]}]}
